# Screen size: about 1,300 compounds; about 460 (35%) were called active. The shares of active, inactive and inconclusive entries below differ from those in the screen. The call rests on the fitted dose curve; in most records, active means well fitted inhibition curve with a large enough effect; inconclusive means small, poorly fitted or top-dose-only effect; inactive means flat fitted curve, though single readings scatter. Potencies of inconclusive entries are doubtful fits and often do not repeat.
# Amino acid sequences for entries named in this document (tags omitted). A change or cut given only in a name is not applied to a line headed by its entry.
# UniProt O00167: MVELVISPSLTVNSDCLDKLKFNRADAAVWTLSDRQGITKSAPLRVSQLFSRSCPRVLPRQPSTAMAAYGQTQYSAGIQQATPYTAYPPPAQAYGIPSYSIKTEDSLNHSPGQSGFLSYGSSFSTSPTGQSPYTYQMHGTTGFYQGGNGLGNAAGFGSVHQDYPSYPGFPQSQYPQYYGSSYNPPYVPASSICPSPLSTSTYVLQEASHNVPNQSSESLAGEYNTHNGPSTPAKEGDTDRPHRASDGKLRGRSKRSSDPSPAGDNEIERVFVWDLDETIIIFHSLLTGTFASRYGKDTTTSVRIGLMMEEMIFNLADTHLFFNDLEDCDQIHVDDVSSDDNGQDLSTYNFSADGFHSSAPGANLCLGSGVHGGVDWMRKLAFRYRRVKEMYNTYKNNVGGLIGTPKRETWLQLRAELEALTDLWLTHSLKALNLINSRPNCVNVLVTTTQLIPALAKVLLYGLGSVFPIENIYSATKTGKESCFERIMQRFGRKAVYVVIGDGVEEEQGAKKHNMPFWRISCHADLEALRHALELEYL
# Biological target: Protein phosphatase EYA2 (Homo sapiens) (UniProt O00167)
# Experiment: qHTS for Inhibitors of the Phosphatase Activity of Eya2: Confirmatory Assay for Cherry-picked Compounds; further: nearly all actives have a fitted effect of over 65% in size
# Details: purified EYA2 phosphatase activity, qHTS confirmation; series mostly up to 46.1 µM
# Outline: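 Eya2 (0.2 uM working solution) preincubated 10 min at room temperature with compound in pH 7.5 HEPES buffer with MgCl2, BSA, DTT. OMFP added (50 uM working solution), 10 min more; fluorescence 485/525 nm, normalized to EGTA and DMSO.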
# Potency means the concentration at half of the fitted maximal effect.
row,Structure (SMILES),Potency
1,Cc1ccc(-c2n[nH]c(=O)c3ccccc23)cc1S(=O)(=O)Nc1ccccc1,"inconclusive: 19 µM [inhibitor, partial curve]"
2,CSc1nc2nc3c(cc2c(=O)[nH]1)C(O)Oc1ccc(C)cc1-3 (stereo not given),"inconclusive: 23.9 µM [inhibitor, partial curve]"
3,COc1cc(NC(=O)CN2C(=O)CSc3ccc(S(=O)(=O)N4CCCC4)cc32)cc(OC)c1,active: 5.36 µM
4,O=C(O)c1nc(-c2ccccc2)n(-c2cccc(C(F)(F)F)c2)n1,"inconclusive: 21.3 µM [inhibitor, partial curve]"
5,COc1cc(OC)c(OC)cc1/C=C1\CC(C)C/C(=C\c2cc(OC)c(OC)cc2OC)C1=O (stereo not given),"inconclusive: 19 µM [inhibitor, single point]"
6,CCC(=O)NC(c1ccc(OC)c(OC)c1)c1cc(Cl)c2cccnc2c1O (stereo not given),active: 1.69 µM
7,COc1ccc2c(c1)sc1nc(=O)ccn12,"inconclusive: 13.5 µM [inhibitor, partial curve]"
8,CCCCn1nc(C(=O)Nc2ccc3c(c2)OCO3)c2ccccc2c1=O,active: 12 µM
9,CN(C)c1c(Cl)cc(/C=C2\C=Cc3ccccc32)cc1Cl,"inconclusive: 8.49 µM [inhibitor, partial curve]"
10,O=C(Nc1cccc(O)c1)c1cccc(C(=O)Nc2cccc(O)c2)c1,"inconclusive: 8.49 µM [inhibitor, partial curve]"
11,O=C(COc1ccccc1/C=C1/NC(=O)NC1=O)Nc1ccccc1,inactive
12,CN(C)S(=O)(=O)n1cnc2ccccc21,inactive
13,C=CCn1cccc(C(=O)Nc2ccc(N(C)C)cc2)c1=O,"inconclusive: 19 µM [inhibitor, partial curve]"
14,CCOc1ccc(S(=O)(=O)Nc2cc(SCC(=O)O)c(O)c3ccccc23)cc1,"inconclusive: 7.57 µM [inhibitor, partial curve]"
15,COc1ccc(N2CCN(CC(=O)Nc3ccccc3C(=O)NC(C)c3ccccc3)CC2)cc1 (stereo not given),"inconclusive: 13.5 µM [inhibitor, partial curve]"
16,CCOC(=O)CNC(=O)C1CCCN(c2ncccn2)C1 (stereo not given),inactive
17,CCCNC(=O)C1(C)CCN(Cc2cccc(OC(=O)c3ccccc3)c2)C1 (stereo not given),inactive
18,CNC(=O)c1ccc(Nc2nnc(-c3ccc(C)c(S(=O)(=O)NCC4CCCO4)c3)c3ccccc23)cc1 (stereo not given),"inconclusive: 21.3 µM [inhibitor, partial curve]"
19,C[C@](N)(Cc1ccc(O)c(O)c1)C(=O)O,inactive
20,Cc1ccc(NC(=O)CSc2cccc3cccnc23)c(C)c1,active: 5.36 µM

# Some of the entries so far, as tab-separated lines.
row	Structure (SMILES)	Potency
11	O=C(COc1ccccc1/C=C1/NC(=O)NC1=O)Nc1ccccc1	inactive
14	CCOc1ccc(S(=O)(=O)Nc2cc(SCC(=O)O)c(O)c3ccccc23)cc1	inconclusive: 7.57 µM [inhibitor, partial curve]

# Reference: PubChem BioAssay AID720540 (National Center for Advancing Translational Sciences (NCATS), 2013)
